# Results are given in words; binding and its absence hold for the method and conditions named. Some entries that bind do so weakly or less than the wild type. Where a sequence is shown, tags or fusion partners need not be part of it.
# Biological target: E2-SpyTag (Geobacillus stearothermophilus E2 multimeric protein scaffold particle with SpyTag) (Geobacillus stearothermophilus)
# Assay: negative-stain transmission elect; both purified
binder,measurement,value
E2-SpyTag (Geobacillus stearothermophilus E2 multimeric protein scaffold particle with SpyTag) (protein) MAHIVMVDAYKPTKAAAEEKAAPAAAKPATTEGEFPETREKMSGIRRAIAKAMVHSKHTAPHVTLMDEADVTKLVAHRKKFKAIAAEKGIKLTFLPYVVKALVSALREYPVLNTSIDDETEEIIQKHYYNIGIAADTDRGLLVPVIKHADRKPIFALAQEINELAEKARDGKLTPGEMKGASCTITNIGSAGGQWFTPVINHPEVAILGIGRIAEKPIVRDGEIVAAPMLALSLSFDHRMIDGATAQKALNHIKRLLSDPELLLMEA,binding,binds

# From article PMC8005036 (Vaccines, 2021)
